PubChem BioAssay AID1224828 | NIAID | 2016
The deposit covers about 17,000 reagents; this is a part drawn at random. In the full data, 762 (4.5%) are marked active. 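Active calls include both raised and lowered p65 entry, mostly lowered; wells with fewer than 50 cells lack a z-score.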 Raw values vary from plate to plate and are shown uncorrected. Unmarked entries are inactive.

- Assay: 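Knock-downs that increase or decrease LPS-induced p65 nuclear translocation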 (primary screen)
- Cell system: mouse RAW264.7 G9 macrophage reporter cells (GFP-p65, Tnf promoter-mCherry)
- Reagent: siRNA pool against mouse genes, 100 nM
- Timing: 2 days siRNA transfection, then 40 min LPS before fixation
- Challenge: LPS (Salmonella minnesota R595) at 10 ng/ml
- Detection: 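Imaged p65 nuclear translocation ratio, normalised to the plate median, converted to robust z-scores and averaged across two replicates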
- Direction: p65 translocation robust z-score: higher = more nuclear NF-kappaB p65 after LPS than the plate median; nuclear/cytoplasmic p65 ratio: higher = more nuclear NF-kappaB p65
- Hit rule: 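Called active when z exceeds 3.3 or falls under -1.56 (median of Tlr4 controls), giving activity score of at least 50; no calls for control wells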
- Meaning of the calls: active = hit (p65 shift raised or lowered); inactive = no clear change

Gene | p65 translocation robust z-score | nuclear/cytoplasmic p65 ratio, rep 1 | nuclear/cytoplasmic p65 ratio, rep 2 | low cell count flag
Hipk3 | -0.24 | 1.64 | 1.35 | enough cells to score
Col4a1 | 0.9 | 1.63 | 1.46 | enough cells to score
Wrnip1 | 0.09 | 1.35 | 1.26 | enough cells to score
Pkig | -0.85 | 1.38 | 1.3 | enough cells to score
Rel | 0.04 | 1.53 | 1.52 | enough cells to score
Cyp2b9 | -1.24 | 1.41 | 1.56 | enough cells to score
Vpreb1b | -1.1 | 1.4 | 1.31 | enough cells to score
Or4c112 | -1.68 (active) | 1.41 | 1.32 | enough cells to score
Pnpla2 | 1.17 | 1.42 | 1.64 | enough cells to score
Cd33 | -0.43 | 1.51 | 1.74 | enough cells to score
Or2g7 | -0.05 | 1.51 | 1.5 | enough cells to score
Sos1 | 1.08 | 1.61 | 1.8 | enough cells to score
Scp2 | 0.61 | 1.54 | 1.74 | enough cells to score
Vmn1r203 | -0.08 | 1.38 | 1.22 | enough cells to score
Or5w13 | -1.44 | 1.49 | 1.32 | enough cells to score
Sp1 | -1.55 | 1.33 | 1.33 | enough cells to score
Tmem41a | 1.9 | 1.52 | 1.81 | enough cells to score
Clk3 | -0.88 | 1.51 | 1.31 | enough cells to score
Lce1a2 | 0.87 | 1.51 | 1.35 | enough cells to score
Tead3 | -0.7 | 1.54 | 1.31 | enough cells to score
Mov10 | 1.23 | 2.04 | 1.73 | enough cells to score
Nme3 | -0.63 | 1.63 | 1.3 | enough cells to score
Cdx4 | 0.51 | 1.54 | 1.44 | enough cells to score
Gm9735 | 0.28 | 1.51 | 1.54 | enough cells to score
Actr1b | -0.57 | 1.53 | 1.54 | enough cells to score
Ica1l | -2.63 (active) | 1.1 | 1.03 | enough cells to score
Apc2 | -0.39 | 1.52 | 1.6 | enough cells to score
Nek11 | -1.1 | 1.59 | 1.24 | enough cells to score
1700049L16Rik | – | 1.45 | 1.35 | fewer than 50 cells per well; well left out of scoring
Prrt1 | – | 1.03 | 1.09 | fewer than 50 cells per well; well left out of scoring
Ctsll3 | -0.72 | 1.32 | 1.17 | enough cells to score
Apaf1 | 0.28 | 1.69 | 1.63 | enough cells to score
Polg | -0.94 | 1.35 | 1.3 | enough cells to score
Gstp3 | -0.22 | 1.58 | 1.76 | enough cells to score
Dapk2 | 0.24 | 1.67 | 1.46 | enough cells to score
Or1e35 | 0.95 | 1.72 | 1.58 | enough cells to score
Rgs8 | -0.4 | 1.39 | 1.47 | enough cells to score
Ankrd1 | -0.71 | 1.51 | 1.52 | enough cells to score
Mnd1 | -1.59 (active) | 1.18 | 1.26 | enough cells to score
Tmod3 | 0.95 | 1.49 | 1.22 | enough cells to score
